Test results from patent US6365652B2, “Trisaryl-1,3,5-triazine ultraviolet light absorbers” (Ciba Specialty Chemicals Corporation, priority 1997, dated 2002).

Legend:
[1] = Two-layer method, water-based polyurethane coating, UV depth profiling
[2] = Bonding to a polycarboxylic acid: reaction with adipic acid in refluxing xylenes, HPLC
[3] = Two-layer approach, polyurethane coating on steel, UV depth profiling; details: 2% in top layer
[4] = QUV accelerated weathering (UVB-313 bulbs) of acrylic urethane clear coat; details: for DOI / Gloss / b: 0 h QUV
From the text: Compounds D and E were formulated in clear coatings which were applied to panels for accelerated weathering testing as follows. Compound D or E (1% or 2% based on total resin solids) and/or SANDUVOR® S-3055 HALS-type stabilizer (1% based on total resin solids) were predissolved in the solvent mixture (to a 5-10% solids level) and added to the clear acrylic urethane formulation given in Table 3 below. Components I and II were mixed just before use. Cold roll steel panels measuring 4″×12″ and precoated with an electro-coat primer ED505A and a white polyester acrylic melamine base-coat #542AB839, obtained from ACT Laboratories, Inc. (Hillsdale, Mich.) were coated with the clear coating formulations of Table 3. The draw-down technique, using WC-60 WireCators™ (Leneta Co., Hohokus, N.J.), was used to apply the clear coat to the pre-coated panels. The clear coats were allowed to flash for 10 min at ambient temperature and cured for 30 min at 135° C.
Accelerated weathering was carried out on the clear coating formulations using a QUV device equipped with UVB-313 fluorescent bulbs. The coated panels were subjected to accelerated weathering under alternate cycles of (i) UV light at 70° C. for 8 hours and (ii) condensation with no UV light at 50° C. for 4 hours (ASTM G53, GM cycle). Specular properties such as gloss ([…], ASTMD523) and distinctness of image (“DOI”) (Dorigon Meter D47R-6FT, Hunter Associate Laboratory) and yellowing (“Delta b”) were measured as a function of weathering time.
The results for QUEV exposure using Compounds D or E as the sole stabilizer are presented below in Table 4. The results for QUV exposure using Compounds D or E in combination with S-3055 HALS are presented below in Table 5.
Example 6 was repeated, except that Compound G was used in place of Compounds D and E. The results for QUV exposure using Compound G as the sole stabilizer, and in combinations with a HALS, are presented below in Table 6.
The clear coating composition of Example 6 was used to evaluate the performance of Compounds E and F, alone at 2%, and in combination with a HALS, SANDUVOR® 3055 (1% of Compound E plus 1% of S-3055; and 1% of Compound G plus 1% of S-3055). These coating compositions were weathered by QUV according to the method of Example 6.

[5] = 1% Comp. G + 1% HALS, 501 h QUV
[6] = 1% Comp. G + 1% HALS, 1004 h QUV
[7] = 1% Comp. G + 1% HALS, 1515 h QUV
[8] = 1% Comp. G + 1% HALS, 1998 h QUV
[9] = 1% Comp. G + 1% HALS, 2499 h QUV
[10] = 1% Comp. G + 1% HALS, 3003 h QUV

CCCCN(CCO)C(=O)COc1ccc(-c2nc(-c3ccc(C)cc3C)nc(-c3ccc(C)cc3C)n2)c(O)c1 [Compound E, 4-[4,6-Bis(2′4′-dimethylphenyl)-1,3,5-triazin-2-yl]-3-hydroxyphenoxyacetic acid, N-(n-butyl)-N-(2-hydroxyethyl)amide]
Amount migrated during cure from top paint layer into lower layer [1]: insignificant | UV absorbance in the bottom layer ([1]; interface at 50 μm): No UV absorbance is observed | Reaction with adipic acid (HPLC) ([2]; reflux in xylenes 1.5 h): completely reacted

Cc1ccc(-c2nc(-c3ccc(C)cc3C)nc(-c3ccc(OCCCCCCOC(N)=O)cc3O)n2)c(C)c1 [Compound I, 2,4-bis(2,4-dimethylphenyl)-6-[2-hydroxy-4-(6-carbamoyloxyhexyloxy)phenyl]-1,3-5-triazine]
Compound present in bottom layer of two-layer coating ([3]; cure 30 min at 80° C.): completely absent | Compound present in bottom layer of two-layer coating ([3]; cure 30 min at 120° C.): 5%

C=C(C)c1cccc(C(C)(C)NC(=O)OCCOc2ccc(-c3nc(-c4ccc(C)cc4C)nc(-c4ccc(C)cc4C)n3)c(O)c2)c1 [Compound G, 2-{4-[4,6-bis(2′4′-dimethylphenyl)-1,3,5-triazin-2-yl]-3-hydroxyphenoxy}-eth-1-yl N-(meta-isopropenyl-α,α-dimethylbenyzl) carbamate]
DOI ([4]; 1% Comp. G + 1% HALS): 85.6 | Gloss ([4]; 1% Comp. G + 1% HALS): 94.4 | b ([4]; 1% Comp. G + 1% HALS): 4.06 | % DOI Retention [4, 5]: 100.4% | % Gloss Retention [4, 5]: 102.0% | Delta b [4, 5]: 1.09 | % DOI Retention [4, 6]: 100.5% | % Gloss Retention [4, 6]: 102.8% | Delta b [4, 6]: 1.76 | % DOI Retention [4, 7]: 101.3% | % Gloss Retention [4, 7]: 100.4% | Delta b [4, 7]: 2.52 | % DOI Retention [4, 8]: 95.4% | % Gloss Retention [4, 8]: 99.5% | Delta b [4, 8]: 2.66 | % DOI Retention [4, 9]: 101.9% | % Gloss Retention [4, 9]: 105.4% | Delta b [4, 9]: 3.68 | % DOI Retention [4, 10]: 100.4% | % Gloss Retention [4, 10]: 95.3% | Delta b [4, 10]: 3.78 | DOI ([4]; 2% Comp. G alone): 86.9 | Gloss ([4]; 2% Comp. G alone): 95.2 | b ([4]; 2% Comp. G alone): 4.29 | % DOI Retention ([4]; 2% Comp. G alone, 501 h QUV): 100.6% | % Gloss Retention ([4]; 2% Comp. G alone, 501 h QUV): 100.9% | Delta b ([4]; 2% Comp. G alone, 501 h QUV): 2.38 | % DOI Retention ([4]; 2% Comp. G alone, 1004 h QUV): 100.5% | % Gloss Retention ([4]; 2% Comp. G alone, 1004 h QUV): 101.9% | Delta b ([4]; 2% Comp. G alone, 1004 h QUV): 3.13 | % DOI Retention ([4]; 2% Comp. G alone, 1515 h QUV): 100.5% | % Gloss Retention ([4]; 2% Comp. G alone, 1515 h QUV): 100.6% | Delta b ([4]; 2% Comp. G alone, 1515 h QUV): 4.67 | % DOI Retention ([4]; 2% Comp. G alone, 1998 h QUV): 96.3% | % Gloss Retention ([4]; 2% Comp. G alone, 1998 h QUV): 92.0% | Delta b ([4]; 2% Comp. G alone, 1998 h QUV): 5.31 | % DOI Retention ([4]; 2% Comp. G alone, 2499 h QUV): 64.3% | % Gloss Retention ([4]; 2% Comp. G alone, 2499 h QUV): 75.6% | Delta b ([4]; 2% Comp. G alone, 2499 h QUV): 5.79 | % DOI Retention ([4]; 2% Comp. G alone, 3003 h QUV): 30.3% | % Gloss Retention ([4]; 2% Comp. G alone, 3003 h QUV): 51.8% | Delta b ([4]; 2% Comp. G alone, 3003 h QUV): 6.12

Cc1ccc(-c2nc(-c3ccc(C)cc3C)nc(-c3ccc(OCCCCCCO)cc3O)n2)c(C)c1 [HTT, 2,4-bis(2,4-dimethylphenyl)-6-[2-hydroxy-4-(6-hydroxyhexyloxy)phenyl]-1,3-5-triazine]
Conversion to diester (Compound M) plus monoester ([2]; 73 hr at reflux, HPLC area percent at 290 nm): 14% | Reaction with adipic acid (HPLC) ([2]; reflux in xylenes 2.5 h): unreacted
